The test can be described thus: qHTS Assay for Lipid Storage Modulators in Drosophila S3 Cells.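 As to cell number change: cells counted by Cell Tracker Red CMTPX staining in the red channel.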 The following applies: BODIPY lipid droplet fluorescence, 18-24 h; for cell number change: measured here: cell count max response, cells fed with added oleic acid. Summed up:
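Drosophila S3 cells got compounds at several concentrations plus oleic acid (400 uM solution). Laser-scanning cytometry with 488 nm excitation read lipid droplets at 500-530 nm and cells at 575-640 nm. Percent activity was relative to 20 uM Triacsin C.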
In general terms: qHTS replaces the single test concentration by a dilution series.

Setting [1] is: measured here: lipid fluorescence (Fed channel) AC50, cells fed with added oleic acid.
[2] abbreviates: measured here: cell number channel AC50, cells fed with added oleic acid.

The other results are listed elsewhere or left out. Further columns of the screen follow, without active or inactive calls. Most of these compounds were active or inconclusive in the main read-out, so they are no random draw. Potencies come from curve fits of mixed quality, noted in brackets.

As usually defined, the AC50 is the concentration at which the activity in the assay is half-maximal. With `Nc1nc(C2C(=O)CCCC2=O)cs1`, under setting [1], the AC50 was 1.03 µM [falling, full curve].
Regarding `CCCn1c(N)c(C(=O)COC(=O)CNC(=O)c2ccc(C)c(C)c2)c(=O)n(C)c1=O`, the cell number change is 13.3%. Further, the AC50 under setting [1] is 5.17 µM [rising, partial curve].
Consider `CC(=O)N(C1=C(Cl)C(=O)c2ccccc2C1=O)C1CCCCC1`, for which the cell number change was -29.7%.
For the compound `CCc1cc(=O)oc2cc(C)cc(OCC(=O)NCCN3CCOCC3)c12`, the cell number change is -11%.
As to `CS(=O)(=O)N1N=C(c2ccccc2)CC1c1ccc2nccnc2c1` (configuration not stated), the cell number change is 40.2%. Further, the AC50 under setting [2] was 29.1 µM [rising, single point]. In addition, the AC50 under setting [1] was 7.31 µM [rising, partial curve].
Take `O=C(NCC1CCCO1)c1ccc(NC(=O)c2cccc(Br)c2)cc1` (configuration not stated): the cell number change is -9.12%.
As for `CCn1c(COc2ccc(C)cc2)nnc1SCC(=O)NCc1ccco1`, the cell number change was -45%. Besides, under setting [2], the AC50 was 3.66 µM [falling, full curve]. The AC50 under setting [1] is 3.26 µM [falling, partial curve].
`COc1cc(C(=O)NC2CCN(CC(=O)NC3CCCCC3C)CC2)cc(OC)c1OC` (configuration not stated): the cell number change is 11.8%.
`COc1cc(C(=O)Nc2ccc(Oc3ncnc4sc(-c5ccccc5)cc34)cc2)cc(OC)c1OC`: the cell number change amounted to 84.1%. Also, the AC50 under setting [2] is 4.61 µM [rising, partial curve]. Besides, the half-maximal activity concentration (AC50) under setting [1] was 13 µM [rising, partial curve].
For the compound `CC1CCCC(C)N1/N=C/c1ccccc1Br` (configuration not stated), the cell number change is -33.1%. In addition, the AC50 under setting [2] is 29.1 µM [falling, single point]. Moreover, the AC50 under setting [1] was 29.1 µM [falling, single point].
For the compound `C/C(=N\NC(=O)CCCOc1ccc(Cl)cc1C)c1ccc(C)o1`, the cell number change came to 20.3%. In addition, the AC50 under setting [2] was 2.91 µM [rising, partial curve].
For the compound `CC1CCN(C(=O)C(C)OC(=O)CSc2ccc([N+](=O)[O-])cc2)CC1` (configuration not stated), the cell number change is -3.63%. For the same compound, the AC50 under setting [1] is 6.51 µM [falling, single point].
With `Cc1nc2ccccc2c(=O)n1/N=C/C=C/c1ccccc1`, the cell number change came out at 17%. Under setting [2], the AC50 was 0.82 µM [rising, full curve, poor fit].
In the case of `Cc1sc(/N=C/c2c(O)ccc3ccccc23)c(C#N)c1C`, the cell number change was -33.1%. Also, under setting [2], the AC50 is 29.1 µM [falling, single point]. Under setting [1], the AC50 was 29.1 µM [falling, single point].
On to `CCOc1cccc(NC(=O)CSc2sc3c(O)cc(=O)[nH]c3c2C#N)c1`, for which the cell number change is 19.7%. Moreover, the AC50 under setting [1] was 29.1 µM [rising, single point].
For `CCOC(=O)C1=C(CC)Nc2ccccc2N=C1NC(=O)Cn1cnc2ccccc2c1=O`, the AC50 under setting [2] was 1.64 µM [rising, partial curve].
On to `CCOC(=O)c1c(NC(=O)CSc2nnc(-c3ccco3)o2)sc(C)c1C`, for which the cell number change was -14.3%. Under setting [1], the AC50 is 20.6 µM [falling, partial curve, poor fit].
For `COc1ccccc1NC(=O)C(=O)N/N=C(\C)CC(=O)Nc1ccc(OCc2ccccc2)cc1`, the cell number change was -0.368%. The AC50 under setting [1] was 3.26 µM [falling, partial curve].
In the case of `COc1ccc(-c2[nH]ncc2Oc2ccccc2OC)c(O)c1`, the cell number change is -40.1%. In addition, under setting [2], the AC50 is 29.1 µM [falling, single point].
On to `Cc1n[nH]c(=O)c2c(NC(=O)CSc3nncs3)oc(C)c12`, for which the cell number change was found to be 32.8%. Besides, the AC50 under setting [2] was 32.6 µM [rising, single point].
For the compound `COc1ccc(OC)c(NC(=O)c2cccnc2Sc2ccccc2)c1`, the cell number change amounted to 8.68%. Further, under setting [1], the AC50 is 20.6 µM [rising, single point].
Consider `COc1ccc(CCNC(=O)c2cc3c(cc2Cl)N2CCCCCC2=NS3(=O)=O)cc1`, for which the cell number change turned out to be 100%. Besides, under setting [2], the AC50 was 29.1 µM [rising, single point].
For the compound `CCOc1ccccc1CN1CCN(Cc2csc(C(C)=O)c2)CC1CCO` (configuration not stated), the cell number change is -23.8%.
Regarding `CC(C)(C)C1=CC=C(C(C)(C)C)C(=O)C1=O`, the cell number change is -57.2%. Besides, the AC50 under setting [2] is 16.4 µM [falling, partial curve]. For the same compound, the AC50 under setting [1] was 20.6 µM [falling, partial curve, poor fit].
Turning to `COc1ccc2[nH]c(=O)cc(C(=O)O)c2c1`, the cell number change came out at 21.8%. The AC50 under setting [1] is 7.31 µM [rising, partial curve, poor fit].
For the compound `CCS(=O)(=O)c1nc(S(=O)(=O)c2ccc(C)cc2)c(N2CC(C)CC(C)C2)s1` (configuration not stated), the cell number change was -13.5%. Also, under setting [1], the AC50 was 32.6 µM [falling, single point].
For the compound `COc1ccccc1-n1c(SCC(=O)O)nnc1-c1ccc(S(=O)(=O)N2CCCCC2)cc1`, the cell number change amounted to 4.72%. Further, under setting [1], the half-maximal activity concentration (AC50) is 29.1 µM [falling, single point].
Consider `C/C=C/c1ccc(OCC(=O)OCc2csc(CC(=O)Nc3ccccc3C)n2)c(OC)c1`, for which the cell number change was -4.97%.
With `CCN(CC(=O)Nc1cc(Cl)ccc1C)C(=O)CN1C(=O)NC(CC)(c2ccccc2)C1=O` (configuration not stated), the cell number change turned out to be 25%. The AC50 under setting [2] is 0.651 µM [falling, partial curve, poor fit].
In the case of `O=C(CCCn1c(=O)c2ccccc2n(CC(=O)NCc2ccco2)c1=O)NCc1ccco1`, the cell number change was found to be 4.06%. Moreover, the AC50 under setting [1] is 4.11 µM [rising, single point].
As for `Cc1ccc(S(=O)(=O)N2[C@@H](c3ccccc3F)C(C(=O)O)=CC[C@H]2c2cccs2)cc1`, the cell number change is 0.765%. The AC50 under setting [1] is 29.1 µM [rising, single point].
As to `COc1cc(C2CC(=O)N3CN(c4ccccc4C)CSC3=C2C#N)cc(OC)c1OC` (configuration not stated), the cell number change is -20.6%. For the same compound, the AC50 under setting [1] is 9.2 µM [rising, partial curve, poor fit].
Turning to `CCOc1ccc(S(=O)(=O)N2CCOCC2)c2ccccc12`, the cell number change was -19.7%. The AC50 under setting [1] is 0.00461 µM [falling, full curve, poor fit].
For the compound `CS(=O)(=O)Nc1nnc(CCc2ccccc2)s1`, the cell number change worked out at 18.5%.
Consider `O=C1C(Nc2cccc(O)c2)=C(N2CCCCC2)C(=O)c2ccccc21`, for which the cell number change is -61.9%. Also, the AC50 under setting [2] is 20.6 µM [falling, single point]. The AC50 under setting [1] was 20.6 µM [falling, single point].
For `Cc1ccc(NC(=O)CN(c2ccc(Cl)cc2)S(=O)(=O)c2cc([N+](=O)[O-])ccc2Cl)c(C)c1`, the cell number change stood at 114%. For the same compound, the AC50 under setting [2] is 23.1 µM [rising, partial curve]. Further, the AC50 under setting [1] was 25.9 µM [rising, partial curve].
As to `O=C(COC(=O)c1nc(Cl)ccc1Cl)NC1CCS(=O)(=O)C1` (configuration not stated), the cell number change is -2.94%. Moreover, under setting [1], the AC50 was 6.51 µM [falling, partial curve, poor fit].
`Cc1c(N=CC=Nc2c(C)n(C)n(-c3ccccc3)c2=O)c(=O)n(-c2ccccc2)n1C`: the cell number change is -5.14%.
On to `Cn1c2c(c(=O)c3ccccc31)CCC(C)(C)O2`, for which the cell number change is -25.6%. The AC50 under setting [1] is 29.1 µM [falling, single point].
As to `Cc1ccc(CN(C)C(=O)CN2C(=O)NC3(CCCc4ccccc43)C2=O)c(C)c1` (configuration not stated), the cell number change is -1.41%.
As for `COc1cc(NC(=S)N2CCc3ccccc3C2)cc(OC)c1`, the AC50 by setting is: under setting [2], 0.82 µM [rising, single point]; under setting [1], 0.651 µM [rising, partial curve, poor fit].
Turning to `O=C(COC(=O)/C=C/c1ccc(F)cc1)Nc1ccc2[nH]c(=O)[nH]c2c1`, the cell number change was determined as 27.1%. For the same compound, the AC50 under setting [1] was 6.51 µM [falling, single point].
As for `O=C(c1ccco1)n1nc(NCc2ccccc2)nc1NCc1ccccc1`, the cell number change is -30.7%. Also, the AC50 under setting [2] was 14.6 µM [falling, single point]. Besides, the AC50 under setting [1] is 0.731 µM [rising, full curve, poor fit].
In the case of `CC(C)Cn1c2ccccc2c2cc(C(=O)O)ccc21`, the cell number change amounted to 1.87%. Further, the AC50 under setting [1] was 6.51 µM [falling, single point].
Turning to `CC(C)(C)Oc1ncc(Br)c(OC(C)(C)C)n1`, the cell number change was -1.85%. The AC50 under setting [1] is 0.517 µM [falling, full curve, poor fit].
As for `COc1ccc(CC(C)Nc2ccccc2F)cc1` (configuration not stated), the cell number change is -17.2%. Further, under setting [1], the AC50 was 13 µM [rising, partial curve].
For the compound `Cc1cc(C(=O)OCC(=O)NCCC(C)C)c2ccccc2n1`, the AC50 under setting [1] was 16.4 µM [rising, partial curve].
As to `Cc1cccc(C(=O)c2cn[nH]c2-c2ccc(C)cc2O)c1`, the cell number change was -21.5%.
For the compound `NC(N)=NS(=O)(=O)c1ccc(N/C=C/C(=O)c2ccc(Cl)c(Cl)c2)cc1`, the cell number change was 31.7%. The AC50 under setting [2] was 25.9 µM [rising, single point]. For the same compound, the AC50 under setting [1] is 29.1 µM [rising, single point].
As to `Cc1nnc(NC(=O)C(C)Sc2nncn2C)s1` (configuration not stated), the cell number change was -122%. Also, the AC50 under setting [2] is 14.6 µM [falling, partial curve]. In addition, the AC50 under setting [1] was 16.4 µM [falling, partial curve].
Regarding `COC(=O)c1cc2occc2n1Cc1nc(-c2ccc(Cl)cc2)oc1C`, the cell number change was -15%. The AC50 under setting [2] was 0.13 µM [falling, full curve, poor fit].
Regarding `COc1ccccc1CNC(=O)/C=C/c1cc2c(cc1Br)OCO2`, the cell number change turned out to be 1.61%.
Consider `C=CCc1cccc(/C=N/NC(=O)CNc2ccccc2OC)c1O`, for which the cell number change is -37.7%. The AC50 under setting [2] is 29.1 µM [falling, single point]. Also, under setting [1], the AC50 was 29.1 µM [falling, single point].
As for `Cc1nc(N2CCN(Cc3nc4ccccc4[nH]3)CC2)c2oc3ccccc3c2n1`, the AC50 under setting [2] was 0.651 µM [rising, partial curve] and the AC50 under setting [1] was 0.651 µM [rising, partial curve].
As to `O=C(CSc1ncc(-c2ccccc2)[nH]1)Nc1cccc(O)c1`, the cell number change came to 8.75%.
Consider `CCOc1ncccc1C(=O)NCCN1C(=O)S/C(=C/c2cccs2)C1=O`, for which the cell number change is -38.7%. Besides, the AC50 under setting [2] is 23.1 µM [falling, single point]. In addition, the AC50 under setting [1] was 3.66 µM [falling, partial curve].
For `COc1ccc(-c2csc(NC(=O)c3ccccc3OC)c2C(=O)O)cc1OC`, the cell number change was 3.23%. For the same compound, the AC50 under setting [1] was 0.00517 µM [falling, full curve, poor fit].
Turning to `CN(C)CCCNc1c2ccccc2nc2ccccc12`, the cell number change is -41.7%. Moreover, the AC50 under setting [2] was 18.4 µM [falling, single point]. In addition, the AC50 under setting [1] was 16.4 µM [falling, single point].
For the compound `CCOC(=O)C1(Cc2cccc(OC)c2)CCN(C/C=C/c2ccccc2)CC1`, the cell number change was -21.4%. Further, under setting [1], the AC50 was 2.06 µM [falling, partial curve].

For the origin of these results see PubChem BioAssay AID2685 (National Center for Advancing Translational Sciences (NCATS), 2010).
